These are yes or no findings as the source states them, for the method shown. In cells and extracts the contact can be indirect.
Tests used:
[1] = biological target: vimentin (rat (endogenous in sciatic nerve)) (UniProt P31000); test: FRET or BRET; sensitized emission FRET (PFRET) by confocal microscopy on fixed, immunolabelled rat sciatic nerve fibers; MAG as donor (Alexa-Fluor 488 secondary antibody), vimentin as acceptor (Alexa-Fluor 555 secondary antibody); E% against acceptor level tells random from clustered signal
[2] = biological target: vimentin (rat (endogenous in sciatic nerve)) (UniProt P31000); test: FRET or BRET; acceptor-photobleaching FRET (APb-FRET) by confocal microscopy on fixed, immunolabelled rat sciatic nerve fibers; MAG as donor (Alexa-Fluor 488 secondary antibody), vimentin as acceptor (Alexa-Fluor 555 secondary antibody)

Sequences of proteins named here, by UniProt entry; tags and fusion partners are left off.
UniProt P31000: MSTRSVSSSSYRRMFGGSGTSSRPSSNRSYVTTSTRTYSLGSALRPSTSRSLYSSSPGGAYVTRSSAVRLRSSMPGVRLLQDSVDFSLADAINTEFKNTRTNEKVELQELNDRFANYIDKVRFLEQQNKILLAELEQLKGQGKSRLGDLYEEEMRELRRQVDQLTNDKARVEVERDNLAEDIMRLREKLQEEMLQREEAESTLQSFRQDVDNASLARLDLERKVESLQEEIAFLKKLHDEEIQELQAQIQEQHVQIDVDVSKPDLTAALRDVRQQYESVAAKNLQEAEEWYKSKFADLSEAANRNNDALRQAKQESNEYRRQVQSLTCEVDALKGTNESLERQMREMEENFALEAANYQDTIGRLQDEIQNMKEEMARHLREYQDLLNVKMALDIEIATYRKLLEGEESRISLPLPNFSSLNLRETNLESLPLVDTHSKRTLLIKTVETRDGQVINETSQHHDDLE

binding [2]: no binding
B1: Myelin Associated Glycoprotein (protein, UniProt P07722 20-626)
chain: GHWGAWMPSSISAFEGTCVSIPCRFDFPDELRPAVVHGVWYFNSPYPKNYPPVVFKSRTQVVHESFQGRSRLLGDLGLRNCTLLLSTLSPELGGKYYFRGDLGGYNQYTFSEHSVLDIINTPNIVVPPEVVAGTEVEVSCMVPDNCPELRPELSWLGHEGLGEPTVLGRLREDEGTWVQVSLLHFVPTREANGHRLGCQAAFPNTTLQFEGYASLDVKYPPVIVEMNSSVEAIEGSHVSLLCGADSNPPPLLTWMRDGMVLREAVAESLYLDLEEVTPAEDGIYACLAENAYGQDNRTVELSVMYAPWKPTVNGTVVAVEGETVSILCSTQSNPDPILTIFKEKQILATVIYESQLQLELPAVTPEDDGEYWCVAENQYGQRATAFNLSVEFAPIILLESHCAAARDTVQCLCVVKSNPEPSVAFELPSRNVTVNETEREFVYSERSGLLLTSILTLRGQAQAPPRVICTSRNLYGTQSLELPFQGAHRLMWAKIGPVGAVVAFAILIAIVCYITQTRRKKNVTESPSFSAGDNPHVLYSPEFRISGAPDKYESEKRLGSERRLLGLRGEPPELDLSYSHSDLGKRPTKDSYTLTEELAEYAEIRVK
binding [1]: no binding

Reference: PMC7259579
